# Measurements from PubChem BioAssay AID540275 (National Center for Advancing Translational Sciences (NCATS), 2011).
# Amino acid sequences for entries named in this document (tags omitted).
# UniProt Q8NER1, whole entry, looked up: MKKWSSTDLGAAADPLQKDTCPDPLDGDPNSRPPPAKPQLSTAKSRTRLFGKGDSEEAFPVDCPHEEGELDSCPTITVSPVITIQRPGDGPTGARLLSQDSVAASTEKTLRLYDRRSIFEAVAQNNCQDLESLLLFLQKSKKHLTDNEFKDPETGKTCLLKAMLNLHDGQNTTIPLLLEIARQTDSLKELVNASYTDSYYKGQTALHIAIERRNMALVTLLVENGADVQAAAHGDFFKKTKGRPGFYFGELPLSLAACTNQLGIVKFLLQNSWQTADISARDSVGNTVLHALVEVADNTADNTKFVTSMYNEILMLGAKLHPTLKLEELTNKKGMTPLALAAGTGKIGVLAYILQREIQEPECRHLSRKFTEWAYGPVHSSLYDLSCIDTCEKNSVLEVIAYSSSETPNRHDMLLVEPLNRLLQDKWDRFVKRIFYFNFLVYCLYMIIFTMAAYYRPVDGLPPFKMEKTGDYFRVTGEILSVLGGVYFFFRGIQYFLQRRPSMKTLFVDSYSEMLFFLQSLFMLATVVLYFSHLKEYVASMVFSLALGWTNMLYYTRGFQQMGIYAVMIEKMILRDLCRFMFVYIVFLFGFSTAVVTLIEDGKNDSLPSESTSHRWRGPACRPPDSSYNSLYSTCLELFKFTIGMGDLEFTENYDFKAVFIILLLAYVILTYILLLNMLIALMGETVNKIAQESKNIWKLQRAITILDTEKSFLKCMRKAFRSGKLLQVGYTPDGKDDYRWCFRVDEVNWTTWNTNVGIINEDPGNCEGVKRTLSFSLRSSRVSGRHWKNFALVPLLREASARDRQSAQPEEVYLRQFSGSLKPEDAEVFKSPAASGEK
# Among all 320,000 compounds or so, about 620 (0.19%) were called active. The shares of active, inactive and inconclusive entries below differ from those in the screen. Cut-off read from the data, not from the text of the source: active = activation above about 80%; inconclusive = between about 30% and that limit; inactive = weaker than that.
# Target: Transient receptor potential cation channel subfamily V member 1 (Homo sapiens) (UniProt Q8NER1)
# Test: HTS Assay for Compounds that Act as Agonists of the Vanilloid Receptor 1; note: 0% is about no effect
# Details: TRPV1-expressing cells, Fluo-8 calcium influx, agonist mode; at 8.33 µM, hits give high values
# How it was run: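 Cells expressing TRPV1 were dye-loaded with Fluo-8 and read kinetically: 10 s baseline, 3 min after compound (agonist portion), then 2 min after EC20 capsaicin (allosteric enhancer portion). Calcium-bound dye fluorescence at 480/520 nm.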
row,SMILES,activation
1,CCOc1ccc(CNC(=O)C2CCN(c3nnc(C)c4c(C)n(-c5ccc(C)cc5)nc34)CC2)cc1,inconclusive: 38.3%
2,COc1ccc(CNCC(=O)Nc2cc(C)nn2-c2nc(C)cc(C)n2)cc1OC,inactive: -1.75%
3,CO/N=C/c1cccn1-c1nccc(OC)c1C#N,inactive: -2.03%
4,Cc1ccc(CONC(=O)c2ccc(Cl)cc2)cc1,inconclusive: 59.1%
5,COc1ccc(-c2nc(-c3ccccn3)nc(N3CCN(C)CC3)c2C#N)cc1,inconclusive: 32.1%
6,Cn1c2ccccc2c2cc(/C=N/NC(=O)c3cc(O)ccc3O)ccc21,inactive: -1.06%
7,CCOC(=O)c1cc(NC(=O)c2cccnc2)cc(C(=O)OCC)c1,inconclusive: 36.6%
8,Cc1cc(C(=O)NNC(=S)NC(=O)/C=C/c2ccccc2Cl)n[nH]1,inactive: -2.02%
9,CC(C)(C)c1ccc(S(=O)(=O)Nc2noc3ccccc23)cc1,inactive: -1.64%
10,O=C(Nc1cccc(N=Cc2cc(Br)cc(Br)c2O)c1)c1ccco1,inactive: 2.61%
11,COc1ccc(NC(=O)CCn2nnc(-c3ccc(C)cc3)n2)cc1OC,inconclusive: 39.6%
12,C=CCN(c1ccccc1)S(=O)(=O)c1cccc(C(=O)Nc2ncccc2O)c1,inconclusive: 56.1%
13,COC(=O)c1cn(NC(=O)Cc2cccc(C(F)(F)F)c2)c(=O)c2ccccc12,inconclusive: 50.9%
14,O=C1OC(NCc2cccnc2)(c2ccc(Cl)cc2)c2ccccc21 (configuration not stated),inactive: 8.52%
15,COc1ccc(C(C(=O)NC(C)(C)C)N(CCc2ccccc2)C(=O)CCC(=O)Nc2cc(C)on2)cc1 (configuration not stated),inconclusive: 36.1%
16,O=C(Nc1cccs1)Nc1ccccc1Cl,inconclusive: 54.6%
17,C/C(CC(=O)Nc1ccc(Cl)c(C(F)(F)F)c1)=N\NC(=O)c1ccccc1O,inconclusive: 35.6%
18,O=C(/C=C/c1ccc(N2CCOCC2)cc1)c1ccccc1,inconclusive: 54.9%
19,O=C1N=C(N2CCCCC2)S/C1=C\c1ccc(Br)cc1,active: 86.6%

row,SMILES,activation
1,O=C(CCC(=O)Nc1ccc(F)cc1)N/N=C/c1ccc(O)cc1O,inactive: 5.53%
2,Cc1ccc(S(=O)(=O)/N=C2/NC(=O)/C(=C/c3cc([N+](=O)[O-])ccc3O)S2)cc1,inactive: -0.473%
3,COc1cccc(NC(=O)CCC(=O)N2CC(C)Oc3ccc(C)cc32)c1 (configuration not stated),inconclusive: 42.2%
4,COc1ccc(S(=O)(=O)N2CCN(C(=O)CCSc3ccccc3)CC2)cc1,inconclusive: 44.3%
5,O=C(COc1ccc(-n2cnnn2)cc1)NCCc1ccc(F)cc1,inconclusive: 51.8%
6,CCCC(=O)N1CCN(c2nc3ccc(CC)cc3s2)CC1,inconclusive: 35.3%
7,Cc1ccc(OCC(=O)Nc2nnc(S(=O)(=O)N3CCCCCC3)s2)cc1C,inactive: -3.04%
8,Cc1ccc(S(=O)(=O)NC(C(=O)N2CCOCCOCCOCC2)C(C)C)cc1 (configuration not stated),inactive: 4.72%
9,Cn1c(C(=O)O)c(CC(=O)Nc2ccc(F)cc2F)c2ccccc21,inactive: -1.54%
10,CCCCn1nc(NC(=O)c2cccs2)c2cc3ccccc3nc21,inconclusive: 52.8%
11,COc1ccc(NC(=O)N2CCc3ccccc32)cc1,inconclusive: 40%
12,COCc1cc(N2CCCCC2)nc(-c2ccccc2)n1,inconclusive: 35.8%
13,COc1ccccc1C(=O)NC(=O)Nc1c(C)cc(C)cc1C,inconclusive: 30.9%
14,CCCCn1c(/C=C/c2ccco2)nc2ccccc21,inactive: 1.41%
15,COc1cc(OC)c(-c2c3cc(O)c(=O)cc-3oc3cc(O)c(O)cc23)cc1OC,active: 104%
16,Cc1ccc(NC(=O)C(C)Oc2ccccc2)cc1S(=O)(=O)N1CCCCCC1 (configuration not stated),inconclusive: 32.6%
17,Cc1cc(NC(=O)CCN2C(=O)C3C4C=CC(C4)C3C2=O)ccc1Br (configuration not stated),inconclusive: 56.6%
18,CC(=O)c1c(C)[nH]c(C(=O)Nc2ccc(C)c(C)c2)c1C,inconclusive: 56.1%
19,CC(C)Cc1nc(N2CCN(C(=O)Cc3ccccc3)CC2)c(C#N)c2c1COC(C)(C)C2,inconclusive: 30.7%

row,SMILES,activation
1,C/C(=N\OCC(=O)Nc1ccc(OC(F)(F)F)cc1)c1ccc2c(c1)OCCO2,inconclusive: 31.1%
2,Cc1nc(CNC(=O)CC2C(=O)NCCN2Cc2ccc(F)cc2)cs1 (configuration not stated),inactive: -1.73%
3,COc1cccc(NC(=O)c2ccc(S(=O)(=O)N3CCCCC3)cc2)c1,inconclusive: 55.2%
4,O=C(c1cc2cc(Br)cc(Br)c2oc1=O)N1CCCC1,inconclusive: 47.9%
5,COc1ccc2cc(C(=O)Nc3ccccc3)sc(=O)c2c1OC,inconclusive: 36.4%
6,COc1ccc(OCc2nnc(SCC(=O)Nc3ccc(C)cc3)o2)cc1,inactive: -2.44%
7,Cn1nnnc1N=N/C(=N/Nc1ccccc1)c1ccccc1,inconclusive: 53.8%
8,COc1ccc(NC(=O)CSc2nncc3ccccc23)cc1,inactive: 4.32%
9,COc1ccc(OC(=O)COc2cc(C)ccc2C)cc1,inactive: 6.32%
10,COc1ccc(CC(=O)Nc2nc(-c3ccccc3)c(C(C)=O)s2)cc1OC,inconclusive: 72.7%
11,O=C(Nc1ccc(F)cc1)N1CCN(CCc2ccccc2)CC1,inconclusive: 51.5%
12,CCOc1ccc(CCNc2nc3c(c(=O)n(C)c(=O)n3C)n2CC)cc1OCC,inactive: -5.35%
13,Cc1ccc(Nc2ncc3c(n2)CC(C)(C)CC3=O)cc1,inconclusive: 38.8%
14,COCc1cc(C)nc2sc(C(=O)Nc3ccccc3F)c(N)c12,inactive: 2.15%
15,CCOC(=O)c1ccc(S(=O)(=O)n2c(=O)oc3ccccc32)cc1,inconclusive: 41.3%
16,CCN1CCN(c2nc3c(C)cccn3c(=O)c2/C=C(\C#N)S(=O)(=O)c2ccc(Cl)cc2)CC1,inconclusive: 51%
17,COc1ccc(C(=O)N/N=C(\c2ccccc2)c2ccccn2)cc1,inconclusive: 51.8%
18,Cc1ccccc1-n1nc(C)c2cc(C(=O)N3CCOCC3)sc21,inconclusive: 41.7%
19,CC(C)Cc1nc(N2CCN(C(=O)c3ccccc3)CC2)c(C#N)c2c1CCC2,inconclusive: 54.4%

# Structures from the list above that contain two or more sulfur atoms, in the order listed:
row,SMILES,activation
2,Cc1ccc(S(=O)(=O)/N=C2/NC(=O)/C(=C/c3cc([N+](=O)[O-])ccc3O)S2)cc1,inactive: -0.473%
4,COc1ccc(S(=O)(=O)N2CCN(C(=O)CCSc3ccccc3)CC2)cc1,inconclusive: 44.3%
7,Cc1ccc(OCC(=O)Nc2nnc(S(=O)(=O)N3CCCCCC3)s2)cc1C,inactive: -3.04%
